Consider 62 substances from US7253146B2 (Polyphor Ltd, priority 2001, dated 2007).

Some peptides are written in HELM: one residue between dots, names in brackets for other building blocks, links after the first $.

The nature of this data set: general procedure: Fmoc solid-phase peptide synthesis; polystyrene crosslinked with 1–5% divinylbenzene, 2-chlorotrityl linker. The settings on record: whole synthesis.
“PEPTIDE1{R.Y.L.L.Y.R.R.R.Y.L.L.Y.R.R.[dP].P}$PEPTIDE1,PEPTIDE1,1:R1-16:R2$$$V2.0”: the “crude HPLC purity” value was found to be 48%.

Take “Tyr-Lys-Leu-Arg-Leu-Lys-Tyr-Arg-Arg-Trp-Lys-Tyr-Arg-Val-Lys-Phe-^DPro^LPro”: the “crude HPLC purity” value was determined as 34%.

As to “Arg-Phe-Phe-Phe-Arg-Arg-Arg-Leu-Leu-Arg-^DPro^LPro”, the “crude HPLC purity” value is 45%.

Take “Arg-Phe-Phe-Arg-Arg-Arg-Leu-Phe-Arg-^DPro^LPro”: the “crude HPLC purity” value is 26%.

Consider “Arg-Leu-Leu-Tyr-Tyr-Arg-Arg-Arg-Tyr-Leu-Leu-Tyr-Arg-Arg-^DPro^LPro”, for which the “crude HPLC purity” value worked out at 29%.

As for “Arg-Leu-Phe-Phe-Arg-Arg-Leu-Phe-Leu-^DPro^LPro”, the “crude HPLC purity” value was determined as 35%.

Regarding “Tyr-Val-Arg-Lys-Gly-Phe-Leu-Val-^DPro^LPro”, the “crude HPLC purity” value is 86%.

As for “Lys-Arg-Leu-Tyr-Tyr-Trp-Arg-Arg-Gly-Trp-Tyr-Val-Phe-Val-Leu-Arg-^DPro^LPro”, the “crude HPLC purity” value turned out to be 39%.

Turning to “Arg-Tyr-Leu-Tyr-Arg-Arg-Leu-Tyr-Leu-^DPro^LPro”, the “crude HPLC purity” value amounted to 66%.

Turning to “Leu-Leu-Phe-Phe-Arg-Arg-Leu-Phe-Arg-^DPro^LPro”, the “crude HPLC purity” value was determined as 35%.

As for “Arg-Phe-Leu-Phe-Arg-Arg-Arg-Leu-Phe-Leu-^DPro^LPro”, the “crude HPLC purity” value is recorded as 50%.

Regarding “Lys-Arg-Leu-Lys-Tyr-Trp-Arg-Arg-Gly-Trp-Tyr-Val-Lys-Val-Leu-Arg-^DPro^LPro”, the “crude HPLC purity” value turned out to be 27%.

In the case of “Tyr-Leu-Leu-Tyr-Arg-Arg-Leu-Tyr-Arg-^DPro^LPro”, the “crude HPLC purity” value is given as 57%.

Turning to “Arg-Tyr-Leu-Tyr-Arg-Arg-Arg-Leu-Tyr-Arg-^DPro^LPro”, the “crude HPLC purity” value is given as 41%.

Consider “Arg-Arg-Leu-Phe-Leu-Arg-Arg-Arg-Phe-Phe-Leu-Phe-Phe-Arg-^DPro^LPro”, for which the “crude HPLC purity” value was 34%.

As to “Arg-Phe-Leu-Phe-Arg-Arg-Leu-Phe-Leu-^DPro^LPro”, the “crude HPLC purity” value came to 57%.

Consider “PEPTIDE1{R.L.F.F.R.R.R.L.F.R.[dP].P}$PEPTIDE1,PEPTIDE1,1:R1-12:R2$$$V2.0”, for which the “crude HPLC purity” value is given as 56%.

Take “Arg-Leu-Tyr-Tyr-Arg-Arg-Leu-Tyr-Leu-^DPro^LPro”: the “crude HPLC purity” value is reported as 33%.

For the substance “Arg-Phe-Leu-Arg-Arg-Arg-Leu-Phe-Arg-^DPro^LPro”, the “crude HPLC purity” value was 35%.

Regarding “Tyr-Val-Arg-Arg-Arg-Trp-Leu-Val-^DPro^LPro”, the “crude HPLC purity” value is listed as 35%.

Take “Lys-Arg-Leu-Lys-Tyr-Val-Arg-Arg-Arg-Trp-Leu-Val-Lys-Val-Leu-Arg-^DPro^LPro”: the “crude HPLC purity” value was 70%.

With “Arg-Tyr-Leu-Tyr-Leu-Arg-Arg-Arg-Tyr-Tyr-Leu-Tyr-Arg-Arg-^DPro^LPro”, the “crude HPLC purity” value is 51%.

In the case of “Arg-Tyr-Tyr-Tyr-Arg-Arg-Arg-Leu-Leu-Arg-^DPro^LPro”, the “crude HPLC purity” value came out at 70%.

For the substance “Arg-Arg-Leu-Tyr-Leu-Arg-Arg-Arg-Tyr-Tyr-Leu-Tyr-Tyr-Arg-^DPro^LPro”, the “crude HPLC purity” value is 89%.

Consider “Arg-Phe-Leu-Phe-Leu-Arg-Arg-Arg-Phe-Leu-Phe-Leu-Arg-Arg-^DPro^LPro”, for which the “crude HPLC purity” value came out at 79%.

Consider “PEPTIDE1{K.R.L.K.Y.W.R.R.R.W.Y.V.K.V.L.R.[dP].P}$PEPTIDE1,PEPTIDE1,1:R1-18:R2$$$V2.0”, for which the “crude HPLC purity” value came out at 34%.

“Arg-Arg-Leu-Leu-Tyr-Arg-Arg-Arg-Tyr-Leu-Leu-Tyr-Tyr-Arg-^DPro^LPro”: the “crude HPLC purity” value was found to be 91%.

In the case of “Arg-Leu-Leu-Leu-Tyr-Arg-Arg-Arg-Tyr-Leu-Tyr-Tyr-Arg-Arg-^DPro^LPro”, the “crude HPLC purity” value amounted to 50%.

In the case of “Arg-Tyr-Leu-Arg-Arg-Tyr-Tyr-Leu-Arg-^DPro^LPro”, the “crude HPLC purity” value is listed as 65%.

On to “Leu-Tyr-Leu-Tyr-Arg-Arg-Arg-Leu-Tyr-Arg-^DPro^LPro”, for which the “crude HPLC purity” value is given as 35%.

In the case of “Tyr-Lys-Leu-Gln-Leu-Lys-Trp-Arg-Arg-Phe-Lys-Tyr-Gln-Val-Lys-Phe-^DPro^LPro”, the “crude HPLC purity” value worked out at 21%.

“Tyr-Val-Arg-Arg-Arg-Phe-Leu-Val-^DPro^LPro”: the “crude HPLC purity” value is 76%.

For “Arg-Arg-Leu-Leu-Phe-Arg-Arg-Arg-Phe-Leu-Leu-Phe-Phe-Arg-^DPro^LPro”, the “crude HPLC purity” value is reported as 42%.

In the case of “Phe-Leu-Leu-Phe-Arg-Arg-Leu-Phe-Arg-^DPro^LPro”, the “crude HPLC purity” value turned out to be 67%.

For “Trp-Val-Arg-Lys-Gly-Phe-Leu-Trp-^DPro^LPro”, the “crude HPLC purity” value was 70%.

For the substance “Arg-Arg-Leu-Tyr-Leu-Arg-Arg-Arg-Tyr-Leu-Tyr-Leu-Tyr-Arg-^DPro^LPro”, the “crude HPLC purity” value amounted to 47%.

On to “Leu-Tyr-Leu-Arg-Arg-Tyr-Leu-Tyr-Arg-^DPro^LPro”, for which the “crude HPLC purity” value amounted to 29%.

Regarding “Arg-Tyr-Leu-Tyr-Leu-Arg-Arg-Arg-Tyr-Leu-Tyr-Leu-Arg-Arg-^DPro^LPro”, the “crude HPLC purity” value was 53%.

“Leu-Tyr-Leu-Tyr-Arg-Arg-Leu-Tyr-Arg-^DPro^LPro”: the “crude HPLC purity” value is 67%.

For “Arg-Leu-Leu-Phe-Arg-Arg-Leu-Phe-Phe-^DPro^LPro”, the “crude HPLC purity” value amounted to 68%.

Regarding “Leu-Phe-Leu-Phe-Arg-Arg-Leu-Phe-Arg-^DPro^LPro”, the “crude HPLC purity” value turned out to be 38%.

For “Arg-Phe-Leu-Phe-Arg-Arg-Arg-Leu-Phe-Arg-^DPro^LPro”, the “crude HPLC purity” value worked out at 37%.

As to “Tyr-Lys-Leu-Gln-Leu-Gln-Lys-Lys-Gly-Trp-Gln-Tyr-Gln-Val-Lys-Phe-^DPro^LPro”, the “crude HPLC purity” value was 84%.

“Arg-Tyr-Leu-Arg-Arg-Arg-Leu-Tyr-Arg-^DPro^LPro”: the “crude HPLC purity” value is 46%.

“Leu-Tyr-Tyr-Arg-Arg-Arg-Leu-Tyr-Arg-^DPro^LPro”: the “crude HPLC purity” value was found to be 30%.

For “Lys-Arg-Leu-Tyr-Tyr-Trp-Arg-Arg-Arg-Trp-Tyr-Val-Phe-Val-Leu-Arg-^DPro^LPro”, the “crude HPLC purity” value is on record as 35%.

“Lys-Val-Tyr-Lys-Gly-Phe-Leu-Trp-^DPro^LPro”: the “crude HPLC purity” value turned out to be 64%.

With “Lys-Arg-Leu-Tyr-Tyr-Trp-Arg-Arg-Arg-Trp-Lys-Val-Phe-Val-Leu-Arg-^DPro^LPro”, the “crude HPLC purity” value worked out at 22%.

As for “Lys-Arg-Leu-Lys-Tyr-Val-Arg-Arg-Gly-Trp-Leu-Val-Lys-Val-Leu-Arg-^DPro^LPro”, the “crude HPLC purity” value is 38%.

With “Arg-Tyr-Leu-Tyr-Arg-Arg-Leu-Leu-Arg-^DPro^LPro”, the “crude HPLC purity” value worked out at 55%.

For the substance “Arg-Phe-Leu-Arg-Arg-Phe-Phe-Leu-Arg-^DPro^LPro”, the “crude HPLC purity” value was found to be 30%.

Consider “PEPTIDE1{R.Y.Y.R.R.R.L.Y.R.[dP].P}$PEPTIDE1,PEPTIDE1,1:R1-11:R2$$$V2.0”, for which the “crude HPLC purity” value was found to be 90%.

Turning to “Leu-Phe-Phe-Arg-Arg-Arg-Leu-Phe-Arg-^DPro^LPro”, the “crude HPLC purity” value came to 52%.

For the substance “Arg-Leu-Leu-Tyr-Arg-Arg-Leu-Tyr-Tyr-^DPro^LPro”, the “crude HPLC purity” value was 63%.

With “Arg-Phe-Leu-Phe-Arg-Arg-Leu-Leu-Arg-^DPro^LPro”, the “crude HPLC purity” value was found to be 51%.

Consider “Arg-Phe-Leu-Phe-Leu-Arg-Arg-Arg-Phe-Phe-Leu-Phe-Arg-Arg-^DPro^LPro”, for which the “crude HPLC purity” value is listed as 78%.

“Arg-Arg-Leu-Leu-Tyr-Arg-Arg-Arg-Tyr-Leu-Tyr-Tyr-Leu-Arg-^DPro^LPro”: the “crude HPLC purity” value worked out at 65%.

As to “Lys-Val-Tyr-Arg-Arg-Phe-Leu-Val-^DPro^LPro”, the “crude HPLC purity” value was found to be 75%.

Consider “Tyr-Val-Tyr-Arg-Arg-Phe-Leu-Val-^DPro^LPro”, for which the “crude HPLC purity” value came to 81%.

For the substance “Arg-Phe-Leu-Arg-Arg-Phe-Leu-Phe-Arg-^DPro^LPro”, the “crude HPLC purity” value is given as 33%.

For “Lys-Arg-Leu-Lys-Tyr-Trp-Arg-Arg-Gly-Trp-Lys-Val-Lys-Val-Leu-Arg-^DPro^LPro”, the “crude HPLC purity” value is recorded as 26%.

In the case of “Leu-Leu-Tyr-Tyr-Arg-Arg-Leu-Tyr-Arg-^DPro^LPro”, the “crude HPLC purity” value was 33%.
